This passage reports log2 fold change results from the supplement of paper PMC12819154, “High-throughput peptide-centric local stability assay extends protein–ligand identification to membrane proteins, tissues and bacteria” (Nature Structural & Molecular Biology, 2025).

Chains of the proteins cited; added tags and fusions are not shown. Lines headed by an entry give the natural chain unless they say otherwise; changes in a name come on top.
UniProt Q96QD9: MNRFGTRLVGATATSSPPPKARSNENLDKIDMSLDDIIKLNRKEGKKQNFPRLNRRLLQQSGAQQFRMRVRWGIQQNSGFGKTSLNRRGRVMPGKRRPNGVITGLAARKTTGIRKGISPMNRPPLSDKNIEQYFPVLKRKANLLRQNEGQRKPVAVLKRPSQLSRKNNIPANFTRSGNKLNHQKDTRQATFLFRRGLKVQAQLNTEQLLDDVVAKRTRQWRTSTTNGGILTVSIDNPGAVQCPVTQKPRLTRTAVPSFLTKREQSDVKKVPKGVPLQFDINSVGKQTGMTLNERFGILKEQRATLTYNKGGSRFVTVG
UniProt Q96S21: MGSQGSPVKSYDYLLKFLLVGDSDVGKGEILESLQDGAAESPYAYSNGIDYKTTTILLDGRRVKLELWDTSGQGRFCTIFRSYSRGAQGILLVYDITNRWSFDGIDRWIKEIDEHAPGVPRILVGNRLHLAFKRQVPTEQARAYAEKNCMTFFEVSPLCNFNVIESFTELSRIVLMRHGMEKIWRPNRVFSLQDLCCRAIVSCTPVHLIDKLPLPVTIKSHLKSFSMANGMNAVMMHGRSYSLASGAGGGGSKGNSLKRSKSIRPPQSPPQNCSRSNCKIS
UniProt Q96KR1: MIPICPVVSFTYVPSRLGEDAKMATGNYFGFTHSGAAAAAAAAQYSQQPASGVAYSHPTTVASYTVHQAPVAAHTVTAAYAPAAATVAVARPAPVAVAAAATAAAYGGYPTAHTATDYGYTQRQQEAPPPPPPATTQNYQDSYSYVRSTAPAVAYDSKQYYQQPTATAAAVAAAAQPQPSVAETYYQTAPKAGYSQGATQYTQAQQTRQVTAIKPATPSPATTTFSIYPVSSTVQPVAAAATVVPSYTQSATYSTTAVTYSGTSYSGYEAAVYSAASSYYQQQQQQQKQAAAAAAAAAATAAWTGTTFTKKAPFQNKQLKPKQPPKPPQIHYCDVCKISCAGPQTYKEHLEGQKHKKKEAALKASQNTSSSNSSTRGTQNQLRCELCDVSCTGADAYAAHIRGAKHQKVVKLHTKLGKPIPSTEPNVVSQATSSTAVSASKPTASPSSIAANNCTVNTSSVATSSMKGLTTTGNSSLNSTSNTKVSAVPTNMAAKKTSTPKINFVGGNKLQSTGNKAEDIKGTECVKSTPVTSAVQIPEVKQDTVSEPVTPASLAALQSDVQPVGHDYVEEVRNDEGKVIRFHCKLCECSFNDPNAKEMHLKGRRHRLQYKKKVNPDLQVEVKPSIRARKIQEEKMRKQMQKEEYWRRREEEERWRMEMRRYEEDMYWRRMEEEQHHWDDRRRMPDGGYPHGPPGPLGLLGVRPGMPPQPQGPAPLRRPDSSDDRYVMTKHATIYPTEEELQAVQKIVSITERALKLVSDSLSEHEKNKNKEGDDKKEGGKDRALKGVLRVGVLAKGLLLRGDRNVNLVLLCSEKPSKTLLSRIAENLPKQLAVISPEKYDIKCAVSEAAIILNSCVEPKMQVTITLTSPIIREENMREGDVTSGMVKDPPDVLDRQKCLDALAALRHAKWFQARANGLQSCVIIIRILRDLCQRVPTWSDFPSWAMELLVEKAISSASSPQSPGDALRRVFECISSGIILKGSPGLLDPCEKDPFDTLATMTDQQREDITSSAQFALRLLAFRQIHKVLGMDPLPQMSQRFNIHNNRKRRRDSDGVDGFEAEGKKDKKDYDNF
UniProt Q96MG7: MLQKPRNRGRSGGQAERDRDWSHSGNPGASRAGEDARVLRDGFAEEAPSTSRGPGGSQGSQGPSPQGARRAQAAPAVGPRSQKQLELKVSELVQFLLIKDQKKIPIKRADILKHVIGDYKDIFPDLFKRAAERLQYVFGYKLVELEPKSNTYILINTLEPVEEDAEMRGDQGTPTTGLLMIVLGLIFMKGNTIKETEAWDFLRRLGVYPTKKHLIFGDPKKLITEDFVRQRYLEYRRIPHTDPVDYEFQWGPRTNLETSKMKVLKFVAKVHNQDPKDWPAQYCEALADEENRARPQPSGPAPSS
UniProt Q96SD1, whole entry: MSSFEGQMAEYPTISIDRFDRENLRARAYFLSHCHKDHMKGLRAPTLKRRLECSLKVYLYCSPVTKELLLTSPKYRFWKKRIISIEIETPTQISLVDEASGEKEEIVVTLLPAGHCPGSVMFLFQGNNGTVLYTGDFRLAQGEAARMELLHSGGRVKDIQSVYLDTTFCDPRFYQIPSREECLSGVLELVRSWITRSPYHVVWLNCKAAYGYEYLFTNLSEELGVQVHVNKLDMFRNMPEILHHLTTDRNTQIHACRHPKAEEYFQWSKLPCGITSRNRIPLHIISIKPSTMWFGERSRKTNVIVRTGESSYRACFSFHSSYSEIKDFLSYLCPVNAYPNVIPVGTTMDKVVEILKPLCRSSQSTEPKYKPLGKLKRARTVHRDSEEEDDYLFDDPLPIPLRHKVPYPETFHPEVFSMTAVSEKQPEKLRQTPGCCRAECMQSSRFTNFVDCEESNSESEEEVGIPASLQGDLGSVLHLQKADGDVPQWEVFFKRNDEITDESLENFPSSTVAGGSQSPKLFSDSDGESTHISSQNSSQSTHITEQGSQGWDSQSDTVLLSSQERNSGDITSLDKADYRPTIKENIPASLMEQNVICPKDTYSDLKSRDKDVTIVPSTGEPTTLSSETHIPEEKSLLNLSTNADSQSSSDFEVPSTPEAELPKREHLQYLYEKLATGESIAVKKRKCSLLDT
UniProt Q96NT1: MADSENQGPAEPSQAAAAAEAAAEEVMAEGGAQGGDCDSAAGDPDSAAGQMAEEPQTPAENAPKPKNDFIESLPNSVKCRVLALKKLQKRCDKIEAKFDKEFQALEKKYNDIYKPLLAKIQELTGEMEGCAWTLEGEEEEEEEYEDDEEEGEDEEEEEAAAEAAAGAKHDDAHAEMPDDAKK
UniProt Q96LT6: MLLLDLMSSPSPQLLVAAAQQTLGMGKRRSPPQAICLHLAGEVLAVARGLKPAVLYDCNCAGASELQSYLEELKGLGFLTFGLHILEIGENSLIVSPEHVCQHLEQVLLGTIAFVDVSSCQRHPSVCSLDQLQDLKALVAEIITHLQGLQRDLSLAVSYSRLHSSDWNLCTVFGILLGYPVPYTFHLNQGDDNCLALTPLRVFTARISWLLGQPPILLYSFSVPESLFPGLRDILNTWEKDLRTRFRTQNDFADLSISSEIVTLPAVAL
UniProt Q96J66: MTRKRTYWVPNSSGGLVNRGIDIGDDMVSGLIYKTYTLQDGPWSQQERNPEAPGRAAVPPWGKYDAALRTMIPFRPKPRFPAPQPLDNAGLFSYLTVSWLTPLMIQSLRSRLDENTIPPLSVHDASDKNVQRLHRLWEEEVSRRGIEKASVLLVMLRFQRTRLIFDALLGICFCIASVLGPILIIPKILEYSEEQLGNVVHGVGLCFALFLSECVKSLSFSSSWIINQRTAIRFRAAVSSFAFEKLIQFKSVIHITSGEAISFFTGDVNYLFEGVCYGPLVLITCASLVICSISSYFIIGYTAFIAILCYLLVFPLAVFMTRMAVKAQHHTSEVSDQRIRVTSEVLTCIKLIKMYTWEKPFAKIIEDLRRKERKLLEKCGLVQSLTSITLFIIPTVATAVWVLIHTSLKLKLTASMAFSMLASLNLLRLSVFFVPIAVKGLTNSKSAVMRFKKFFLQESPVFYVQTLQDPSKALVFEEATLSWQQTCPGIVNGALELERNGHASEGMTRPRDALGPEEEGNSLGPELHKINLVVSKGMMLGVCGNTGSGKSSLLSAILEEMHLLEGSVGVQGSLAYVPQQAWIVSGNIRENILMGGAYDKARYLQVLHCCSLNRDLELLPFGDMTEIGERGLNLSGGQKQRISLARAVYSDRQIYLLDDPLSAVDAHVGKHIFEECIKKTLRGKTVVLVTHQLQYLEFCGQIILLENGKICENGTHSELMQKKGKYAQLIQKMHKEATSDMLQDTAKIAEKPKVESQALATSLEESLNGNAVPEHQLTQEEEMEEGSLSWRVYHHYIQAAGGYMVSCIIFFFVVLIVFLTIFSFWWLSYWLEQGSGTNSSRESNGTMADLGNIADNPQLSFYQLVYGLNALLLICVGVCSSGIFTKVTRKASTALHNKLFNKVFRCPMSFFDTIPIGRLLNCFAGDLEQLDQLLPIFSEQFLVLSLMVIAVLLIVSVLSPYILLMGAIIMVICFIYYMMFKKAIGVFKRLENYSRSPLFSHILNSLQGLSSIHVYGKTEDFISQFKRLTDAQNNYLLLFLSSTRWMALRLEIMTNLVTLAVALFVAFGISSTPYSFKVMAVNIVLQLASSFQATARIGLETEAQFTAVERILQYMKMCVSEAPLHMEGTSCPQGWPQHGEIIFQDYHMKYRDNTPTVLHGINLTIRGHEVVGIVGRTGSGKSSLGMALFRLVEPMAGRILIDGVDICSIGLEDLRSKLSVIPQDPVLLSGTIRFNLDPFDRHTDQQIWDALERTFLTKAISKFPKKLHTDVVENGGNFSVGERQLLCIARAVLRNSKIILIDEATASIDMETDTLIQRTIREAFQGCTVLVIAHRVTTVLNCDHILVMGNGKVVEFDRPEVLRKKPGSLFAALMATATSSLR
UniProt Q96HM7: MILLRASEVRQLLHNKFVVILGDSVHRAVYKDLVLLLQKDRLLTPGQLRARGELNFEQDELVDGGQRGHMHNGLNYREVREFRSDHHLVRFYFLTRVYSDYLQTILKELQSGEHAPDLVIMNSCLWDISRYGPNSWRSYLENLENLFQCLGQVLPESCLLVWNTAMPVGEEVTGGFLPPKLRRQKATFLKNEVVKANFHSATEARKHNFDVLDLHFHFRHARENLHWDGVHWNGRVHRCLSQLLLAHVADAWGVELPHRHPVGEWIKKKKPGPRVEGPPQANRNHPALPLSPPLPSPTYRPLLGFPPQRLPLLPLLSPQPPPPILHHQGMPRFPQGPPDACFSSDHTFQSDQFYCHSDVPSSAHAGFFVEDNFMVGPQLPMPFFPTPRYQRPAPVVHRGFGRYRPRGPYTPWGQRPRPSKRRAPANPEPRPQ
UniProt Q96JH7: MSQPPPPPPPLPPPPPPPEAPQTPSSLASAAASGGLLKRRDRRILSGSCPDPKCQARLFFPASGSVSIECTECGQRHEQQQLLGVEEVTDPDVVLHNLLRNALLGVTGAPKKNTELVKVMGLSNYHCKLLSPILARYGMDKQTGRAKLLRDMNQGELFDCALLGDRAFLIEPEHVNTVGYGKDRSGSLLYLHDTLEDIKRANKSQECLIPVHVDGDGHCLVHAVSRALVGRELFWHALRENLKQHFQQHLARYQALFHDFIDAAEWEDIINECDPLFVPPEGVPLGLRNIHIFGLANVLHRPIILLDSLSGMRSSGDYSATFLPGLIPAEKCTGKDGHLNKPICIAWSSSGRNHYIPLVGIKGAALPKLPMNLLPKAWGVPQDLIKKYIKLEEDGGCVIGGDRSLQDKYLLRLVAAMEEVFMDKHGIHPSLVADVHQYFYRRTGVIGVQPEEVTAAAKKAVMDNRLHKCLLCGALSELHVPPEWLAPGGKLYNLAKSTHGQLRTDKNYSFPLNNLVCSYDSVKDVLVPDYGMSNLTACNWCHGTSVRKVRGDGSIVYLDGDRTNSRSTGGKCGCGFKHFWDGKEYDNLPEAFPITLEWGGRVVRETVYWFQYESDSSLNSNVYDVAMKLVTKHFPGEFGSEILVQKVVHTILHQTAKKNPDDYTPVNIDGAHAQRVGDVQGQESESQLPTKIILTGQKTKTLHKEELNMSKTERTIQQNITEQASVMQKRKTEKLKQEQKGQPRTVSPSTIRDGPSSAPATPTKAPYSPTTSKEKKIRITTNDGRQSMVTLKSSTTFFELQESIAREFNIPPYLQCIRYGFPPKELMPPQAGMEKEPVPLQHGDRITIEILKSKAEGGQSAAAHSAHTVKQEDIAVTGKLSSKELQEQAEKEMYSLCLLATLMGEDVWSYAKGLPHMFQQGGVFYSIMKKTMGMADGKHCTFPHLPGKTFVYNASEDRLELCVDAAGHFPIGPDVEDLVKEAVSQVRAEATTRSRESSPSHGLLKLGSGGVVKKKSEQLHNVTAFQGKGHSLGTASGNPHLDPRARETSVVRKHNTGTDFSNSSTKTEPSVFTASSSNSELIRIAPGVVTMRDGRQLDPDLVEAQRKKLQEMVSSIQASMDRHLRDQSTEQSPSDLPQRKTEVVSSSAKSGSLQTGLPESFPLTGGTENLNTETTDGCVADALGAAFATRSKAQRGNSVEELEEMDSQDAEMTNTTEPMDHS
UniProt Q96L50: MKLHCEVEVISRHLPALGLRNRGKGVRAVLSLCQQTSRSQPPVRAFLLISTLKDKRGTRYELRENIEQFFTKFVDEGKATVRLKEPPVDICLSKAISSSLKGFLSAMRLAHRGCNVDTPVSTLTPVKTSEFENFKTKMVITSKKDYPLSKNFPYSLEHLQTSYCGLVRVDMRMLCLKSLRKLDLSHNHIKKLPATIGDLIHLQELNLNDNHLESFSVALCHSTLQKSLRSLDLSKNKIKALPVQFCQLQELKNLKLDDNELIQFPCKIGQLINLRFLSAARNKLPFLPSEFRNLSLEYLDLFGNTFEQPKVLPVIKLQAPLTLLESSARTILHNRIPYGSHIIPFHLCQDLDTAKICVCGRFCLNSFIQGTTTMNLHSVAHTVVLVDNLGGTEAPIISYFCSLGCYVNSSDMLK

The list shows a part of the results. Most entries show no effect beyond the scatter of the controls.

Compound in the assay: CN[C@@H]1C[C@H]2O[C@@](C)([C@@H]1OC)n1c3ccccc3c3c4c(c5c6ccccc6n2c5c31)C(=O)NC4 [staurosporine]
Kind of assay: log2 fold change of tryptic peptide abundance, ligand vs vehicle (limited proteolysis) (log2 ratio); higher = more trypsin-susceptible (destabilized). The settings on record: ligand concentration: 20 uM; sample: K562 cleared lysate; digestion: 4 min, 22 C (HT-PELSA RT4min, Orbitrap Astral).
Consider “INPP4A (peptide sequence: EIIAQINTLK, peptide start residue: 413) (UniProt Q96PE3)”, for which the log2 fold change was -0.657.
Then “FYTTD1 (peptide sequence: TAVPSFLTKR, peptide start residue: 253) (UniProt Q96QD9)”, with -0.193.
Next, “UniProt Q96N21 (peptide sequence: HFEASCGQLSPAR, peptide start residue: 347)”: -0.592.
Then “ZNF317 (peptide sequence: AFTTSASLTR, peptide start residue: 230) (UniProt Q96PQ6)”, with -0.352.
Consider “RAB40C (peptide sequence: SIRPPQSPPQNCSR, peptide start residue: 262) (UniProt Q96S21)”, for which the log2 fold change was -0.294.
Then “PGAM5 (peptide sequence: NVESGEEELASK, peptide start residue: 77) (UniProt Q96HS1)”, with 0.0506.
Next, “SIN3A (peptide sequence: SDSPAIQLR, peptide start residue: 938) (UniProt Q96ST3)”: -0.264; “UniProt Q96Q04 (peptide sequence: AAPVPVVVSSADADAARPLR, peptide start residue: 1308)”: 0.00188.
Then “UniProt Q96H22 (peptide sequence: ASISDAALLDIIYMQFHQHQK, peptide start residue: 61)”, with 0.311; and “ZFR (peptide sequence: RMEEEQHHWDDRR, peptide start residue: 670) (UniProt Q96KR1)”, with -0.295.
Consider “SUCLG2 (peptide sequence: DPNVVGQLAK, peptide start residue: 109) (UniProt Q96I99)”, for which the log2 fold change was -0.409.
Next, “UniProt Q96MG7 (peptide sequence: VSELVQFLLIKDQK, peptide start residue: 89)”: 0.379.
Next, “VPS35 (peptide sequence: QIVLTGILEQVVNCR, peptide start residue: 240) (UniProt Q96QK1)”: 0.226.
Next, “DCLRE1C (peptide sequence: HKVPYPETFHPEVFSMTAVSEK, peptide start residue: 403) (UniProt Q96SD1)”: 0.4; “ZFYVE19 (peptide sequence: QKPSTSQSQGLTR, peptide start residue: 160) (UniProt Q96K21)”: -0.273; “DCAF5 (peptide sequence: IPADPEAGGIGR, peptide start residue: 309) (UniProt Q96JK2)”: 0.524.
Regarding “AGAP3 (peptide sequence: GADLDREK, peptide start residue: 344) (UniProt Q96P47)”, the log2 fold change amounted to 0.424.
Then “NAP1L5 (peptide sequence: YNDIYKPLLAK, peptide start residue: 109) (UniProt Q96NT1)”, with 0.102; and “UniProt Q96LT6 (peptide sequence: ALVAEIITHLQGLQR, peptide start residue: 137)”, with 0.549.
Next, “NARS2 (peptide sequence: TNVLGSILR, peptide start residue: 149) (UniProt Q96I59)”: 0.17.
Then “CRAMP1 (peptide sequence: PGPGLLLDVCTK, peptide start residue: 619) (UniProt Q96RY5)”, with -0.339; and “UniProt Q96HB5 (peptide sequence: RPVLPSVGPPHPPFLHAR, peptide start residue: 576)”, with 0.11.
Take “UniProt Q96J66 (peptide sequence: SSLGMALFR, peptide start residue: 1234)”: the log2 fold change is -0.0555.
Next, “UniProt Q96HM7 (peptide sequence: LLTPGQLR, peptide start residue: 42)”: 0.279; “VCPIP1 (peptide sequence: QHFQQHLAR, peptide start residue: 244) (UniProt Q96JH7)”: 0.337; “SLC35E1 (peptide sequence: QSYPNSYSLNR, peptide start residue: 397) (UniProt Q96K37)”: -0.247.
In the case of “TRNT1 (peptide sequence: EMFQSAGIR, peptide start residue: 91) (UniProt Q96Q11)”, the log2 fold change was 0.544.
Next, “UniProt Q96L50 (peptide sequence: MKLHCEVEVISRHLPALGLR, peptide start residue: 1)”: -0.306.
